Laboratory results reported in patent publication US20240132622A1 (Bristol-Myers Squibb, published 2024).
No constants are given. Whether binding was seen depends on the method and setting. Some binding calls cover weakened binding; strength is not graded here.

Amino acid sequences for entries named in this document (tags omitted).
UniProt Q9UM07: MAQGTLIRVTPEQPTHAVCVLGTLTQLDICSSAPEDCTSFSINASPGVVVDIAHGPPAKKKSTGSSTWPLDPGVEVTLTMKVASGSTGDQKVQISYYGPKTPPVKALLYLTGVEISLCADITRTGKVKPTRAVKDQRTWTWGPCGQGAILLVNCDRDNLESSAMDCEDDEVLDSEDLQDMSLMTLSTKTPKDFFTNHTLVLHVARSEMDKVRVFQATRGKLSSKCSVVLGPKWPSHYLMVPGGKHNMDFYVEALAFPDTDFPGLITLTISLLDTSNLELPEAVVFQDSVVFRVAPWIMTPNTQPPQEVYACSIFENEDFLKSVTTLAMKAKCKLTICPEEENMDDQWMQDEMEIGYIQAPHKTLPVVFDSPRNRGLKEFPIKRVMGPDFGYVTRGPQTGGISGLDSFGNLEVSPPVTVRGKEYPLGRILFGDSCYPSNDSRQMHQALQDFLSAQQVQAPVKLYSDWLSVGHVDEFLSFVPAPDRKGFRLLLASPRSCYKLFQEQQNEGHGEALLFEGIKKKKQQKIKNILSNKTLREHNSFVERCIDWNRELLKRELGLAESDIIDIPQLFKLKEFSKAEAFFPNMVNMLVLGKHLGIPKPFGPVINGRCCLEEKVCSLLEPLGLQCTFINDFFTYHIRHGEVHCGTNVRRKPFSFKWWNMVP

Key:
[1] = molecular target: recombinant human PAD4 (human) (UniProt Q9UM07); assay: SPR at pH 7.6; PAD4 concentrations not printed on the sheet
[2] = molecular target: recombinant human PAD4 (human) (UniProt Q9UM07); assay: SPR at pH 6.0; PAD4 concentrations not printed on the sheet
[3] = molecular target: recombinant human PAD4 (human) (UniProt Q9UM07); assay: SPR at pH 6.0

binding [1]: binds | binding [2]: binds | binding [3]: binds
B1: hz13-5 (antibody, IgG1, V domains shown)
VH: EVLLVQSGAEVKKPGASVKLSCTSSDFNIKDHFIHWVRQAPGKGLEWMGRIDPEDDETKYAPKFQDRVTMTADTSTDTAYMELSSLRSEDTAVFYCAGYGNYEGAMDYWGQGTLVTVSS
VL: DIQMTQSPSSLSASVGDRVTITCRASENVNNYGIGFMNWFQQKPGKAPKLLIYAASRRGSGVPSRFSGSGSGTDFTLTISSLQPEDFATYFCQQSKEVPYTFGQGTKVEIK
notes: also called clone 13-based hz13-5 antibody; parent hz13-5
